From BigSolDB 2.1

Nc1ccc(S(N)(=O)=O)cc1
solubility (mole fraction)
Conditions | 278.15 K | 283.15 K | 288.15 K | 293.15 K | 298.15 K | 303.15 K | 308.15 K | 313.15 K | 318.15 K
in chloroform | 9.2e-07 | 1.26e-06 | 1.71e-06 | 2.27e-06 | 2.92e-06 | 3.68e-06 | 4.52e-06 | 5.44e-06 | 6.43e-06
in ethanol | 0.00609 | 0.00688 | 0.00814 | 0.0097 | 0.0116 | 0.0139 | 0.0165 | 0.0193 | 0.0224
in methanol | 0.0107 | 0.0138 | 0.0174 | 0.0214 | 0.0258 | 0.0306 | 0.0358 | 0.0413 | 0.0471
in toluene | 3.7e-06 | 5.6e-06 | 8.1e-06 | 1.19e-05 | 1.43e-05 | 1.88e-05 | 2.24e-05 | 2.64e-05 | 3.11e-05
